Results: publication PMC7725797
Results are given in words; binding and its absence hold for the method and conditions named. Some results given as binding are weak or reduced against the parent protein; the word gives no strength.

Amino acid sequences for entries named in this document (tags omitted). Residues count along the entry.
UniProt P26022, residues 18-381: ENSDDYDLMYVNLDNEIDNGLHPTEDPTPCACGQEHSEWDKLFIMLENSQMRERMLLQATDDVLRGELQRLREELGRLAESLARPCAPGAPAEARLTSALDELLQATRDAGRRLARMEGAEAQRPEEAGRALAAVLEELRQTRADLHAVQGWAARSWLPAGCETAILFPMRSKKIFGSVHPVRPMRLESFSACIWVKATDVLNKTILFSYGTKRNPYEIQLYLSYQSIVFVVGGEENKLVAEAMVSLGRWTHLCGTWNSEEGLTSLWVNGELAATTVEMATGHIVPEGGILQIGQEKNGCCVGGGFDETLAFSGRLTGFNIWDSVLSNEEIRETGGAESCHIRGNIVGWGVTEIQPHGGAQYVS
UniProt P08603, residues 19-1231: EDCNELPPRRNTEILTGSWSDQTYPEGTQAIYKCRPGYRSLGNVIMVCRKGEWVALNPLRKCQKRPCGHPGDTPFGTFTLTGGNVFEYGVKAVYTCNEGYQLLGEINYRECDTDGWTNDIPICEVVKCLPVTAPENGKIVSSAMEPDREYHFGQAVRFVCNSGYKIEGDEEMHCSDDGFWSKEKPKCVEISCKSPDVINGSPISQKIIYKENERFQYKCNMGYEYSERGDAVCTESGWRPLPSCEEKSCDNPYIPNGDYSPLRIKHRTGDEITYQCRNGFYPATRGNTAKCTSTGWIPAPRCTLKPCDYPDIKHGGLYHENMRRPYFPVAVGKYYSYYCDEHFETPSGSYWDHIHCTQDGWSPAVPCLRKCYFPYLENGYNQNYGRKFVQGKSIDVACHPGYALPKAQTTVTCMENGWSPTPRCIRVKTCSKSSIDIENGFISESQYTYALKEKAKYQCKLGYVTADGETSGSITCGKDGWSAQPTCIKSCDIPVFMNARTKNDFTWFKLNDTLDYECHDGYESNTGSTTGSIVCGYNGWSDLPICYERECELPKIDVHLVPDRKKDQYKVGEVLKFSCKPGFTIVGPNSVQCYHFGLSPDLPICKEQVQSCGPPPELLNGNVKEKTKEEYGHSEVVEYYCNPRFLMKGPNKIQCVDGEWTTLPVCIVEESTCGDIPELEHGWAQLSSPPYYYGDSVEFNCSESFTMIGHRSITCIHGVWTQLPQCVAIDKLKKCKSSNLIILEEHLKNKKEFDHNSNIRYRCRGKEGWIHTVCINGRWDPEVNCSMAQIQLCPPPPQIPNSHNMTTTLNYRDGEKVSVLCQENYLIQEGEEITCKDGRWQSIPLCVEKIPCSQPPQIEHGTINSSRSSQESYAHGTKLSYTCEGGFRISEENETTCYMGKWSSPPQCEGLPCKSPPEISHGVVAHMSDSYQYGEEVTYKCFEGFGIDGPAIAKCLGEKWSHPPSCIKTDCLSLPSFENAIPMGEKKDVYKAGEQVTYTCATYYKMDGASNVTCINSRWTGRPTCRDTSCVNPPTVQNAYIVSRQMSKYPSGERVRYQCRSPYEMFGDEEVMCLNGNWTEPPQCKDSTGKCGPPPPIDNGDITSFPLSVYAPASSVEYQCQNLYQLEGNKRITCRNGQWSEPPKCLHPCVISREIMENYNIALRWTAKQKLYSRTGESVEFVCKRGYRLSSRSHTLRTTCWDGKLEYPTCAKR

Target: recombinant human PTX3 (long pentraxin 3) (human) (UniProt P26022)
Experiment: SPR; PTX3 immobilised (surface-captured) on sensorchips; FH, C3b or a mixture of C3b and FH injected; both purified

**Q.** For factor H (from UniProt P08603 19-1231), which binding is on record?
**A.** binds
